Values after ≈ are worked out from the molar mass of the structure shown.
Tested on: Candida parapsilosis
Assay: Antifungal activity against Candida parapsilosis ATCC 22019 after 44 hrs by broth dilution assay
Type: functional
Details: Lodderomyces parapsilosis, ATCC 22019, 44 h
Outline: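 Yeast broth microdilution per CLSI M27-A3, in RPMI-1640. Incubation is at 37 °C for at least 44 h. MIC is the lowest concentration with no visible growth, read by eye.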

**Q.** OC(Cn1cncn1)(Cn1cncn1)c1ccc(F)cc1F [FLUCONAZOLE] was tested. Which MIC did it give?
**A.** 1 µM (≈ 0.306 µg/mL)

Reference: ChEMBL document CHEMBL4020705, “Investigation of aryl isonitrile compounds with potent, broad-spectrum antifungal activity” (Bioorg Med Chem, 2017)
